# This is one part of the list. These are further read-outs of the screen, such as a control signal, another cell line or another target. No call is given for them. Most of these compounds were active or inconclusive in the main read-out, so they are no random draw. Potencies come from curve fits of mixed quality, noted in brackets.
# Assay: qHTS Assay to Find Inhibitors of Chronic Active B-Cell Receptor Signaling
# Details: ABC-DLBCL IkBa-CBG/CBR reporter, luminescence ratio (green luciferase fused to IkBa over red control in TMD8 lymphoma cells), 4 h
# Procedure, shortened: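 TMD8 ABC-DLBCL cells carrying doxycycline-inducible green luciferase fused to IkappaBalpha plus unfused red luciferase were exposed to compounds (up to 46 uM) for 4 hrs at 37C. Activity came from the overlap-corrected green/red luminescence ratio.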
# [1] = measured here: CBR red luminescence, cell number
# [2] = measured here: IkBa-CBG green luminescence
SMILES,AC50 [1],AC50 [2]
O=C(COC(=O)c1ccc(O)cc1O)Nc1cc(-c2ccccc2)nn1-c1ccccc1,"25.9 µM [falling, partial curve, poor fit]",
O=C(Nc1ccc(Cl)cc1)N[C@@H]1c2c(ccc3ccccc23)OC[C@@H]1CO,"5.62 µM [rising, single point]",
COc1ccc(OC)c(NC(=O)CC2(CC(=O)O)CCCC2)c1,"20 µM [falling, partial curve, poor fit]",
CCn1c(N)c(C(=O)NC2CCCCC2)sc1=S,"14.6 µM [falling, partial curve]",
COc1ccccc1N1CCN(S(=O)(=O)c2cc(C)sc2C)CC1,"0.82 µM [rising, partial curve, poor fit]",
COC(=O)C1CN(C(=O)COc2ccc(Cl)c(C)c2)c2ccccc2O1 (stereo not given),"3.16 µM [falling, full curve]",
CC(=O)OCCc1c(C)nc2nc[nH]n2c1=O,"0.92 µM [falling, full curve, poor fit]",
N#CCSc1nc(Nc2ccc3c(c2)OCO3)c2ccccc2n1,"15.8 µM [falling, single point]",
O=c1oc2c(CN3CCOCC3)c(O)ccc2c2c1CCC2,"35.5 µM [rising, partial curve, poor fit]",
COc1ccc(N(CC(O)Cn2c3ccccc3c3ccccc32)S(=O)(=O)c2ccccc2)cc1 (stereo not given),"7.08 µM [falling, partial curve, poor fit]",
C[C@H](CO)N1C[C@H](C)[C@@H](CN(C)CC2CCCCC2)Oc2c(NC(=O)Cc3ccccc3)cccc2C1=O,"25.9 µM [falling, single point]",
O=C(CSc1nc2ncccc2[nH]1)Nc1ccc2c(c1)OCO2,"35.5 µM [falling, single point]",
CCOc1cc(/C=C/C(=O)OCC(=O)NC2CCS(=O)(=O)C2)ccc1OCc1ccccc1 (stereo not given),"12.6 µM [rising, partial curve, poor fit]",
Cc1c(C(=O)N2CCOCC2)c(S(=O)(=O)Nc2ccccc2)c(C)n1C,"0.794 µM [falling, partial curve, poor fit]",
CNC(=O)CCCc1nc(-c2ccccc2Cl)no1,"0.184 µM [rising, full curve, poor fit]",
COc1cc(C=C2C(=O)c3ccccc3C2=O)cc(OC)c1OC,"5.62 µM [rising, single point]",
CC(=O)C1CCC2C3CCC4=CC(=O)CC[C@]4(C)[C@@]3(F)C(O)C[C@]12C (stereo not given in full),"0.355 µM [rising, full curve, poor fit]",
CCCCn1nc(C(=O)NCC2COc3ccccc3O2)c2ccccc2c1=O (stereo not given),"18.4 µM [falling, single point]",
O=c1cc2c(nn1Cc1cccc(Cl)c1)-c1ccccc1CC2,"14.6 µM [falling, single point]",
COc1ccccc1/C=C/C(=O)OCC(=O)c1c[nH]c2ccccc12,"20.6 µM [falling, single point]",
CCCOc1cccc(CN2CCCCC2c2cccnc2)c1 (stereo not given),"2.91 µM [rising, partial curve, poor fit]",

SMILES,AC50 [1],AC50 [2]
CN(CC/C=C1/c2ccccc2CSc2ccccc21)CCCO,"7.31 µM [falling, partial curve, poor fit]",
Cc1ccsc1C(=O)NNC(=O)Nc1ccc(Cl)c(Cl)c1,"20 µM [falling, single point]",
Cc1c(C(=O)NCc2ccccc2)oc2ccc(S(=O)(=O)N3CCCC3)cc12,"3.55 µM [rising, full curve, poor fit]",
O=[N+]([O-])c1ccc2c(c1)C(N1CCOCC1)/C(=C/COc1ccc(F)cc1)O2 (stereo not given),"29.1 µM [falling, single point]",
O=C(COC(=O)c1ccccc1NC(=O)c1ccccc1)c1ccc([N+](=O)[O-])cc1,"2.91 µM [falling, full curve]",
Brc1c(OCCOCCn2cncn2)ccc2ccccc12,"1.84 µM [rising, partial curve, poor fit]",
COc1ccc(-c2cc(C(=O)N(C)CC(=O)Nc3ccccc3Br)c3ccccc3n2)cc1OC,"6.51 µM [rising, single point]",
CC(=O)Nc1ccc(NC(=O)CSc2ccc(C)cc2)cc1,"3.26 µM [falling, single point]",
O=C1/C(=C/c2ccc(Br)cc2)Oc2cc(O)ccc21,"0.501 µM [rising, full curve, poor fit]",
COc1ccc2[nH]c(C(=O)N/N=C/c3cc(OC)c(OC)c(OC)c3)cc2c1,"10 µM [falling, partial curve]",
CCCOc1cccc(C2/C(=C(/O)c3ccc4c(c3)CC(C)O4)C(=O)C(=O)N2CCN2CCOCC2)c1 (stereo not given),"0.708 µM [rising, full curve]",
Cn1c2ccccc2c(=O)c2c(=O)n(Cc3ccco3)c(-c3ccc(C(C)(C)C)cc3)nc21,"8.91 µM [falling, partial curve, poor fit]",
CCO[C@@H]1OC(C(=O)N2CCN(Cc3ccc4c(c3)OCO4)CC2)=C[C@H](c2csc3ccccc23)[C@H]1CCCO,"6.31 µM [rising, single point]",
CC(C)(C)n1ncc2c(=O)n(CC(=O)N3CCc4ccccc43)cnc21,"12.6 µM [falling, partial curve, poor fit]",
C/C(=N\NC(=O)CSc1nc2ccccc2s1)c1ccco1,"20.6 µM [falling, single point]",
C/C(CC(=O)Nc1ccc(C)c(Cl)c1)=N\NC(=O)c1cccc(O)c1,"2.82 µM [falling, partial curve]",
Cc1ccccc1NC(=O)C1CCC(=O)N1 (stereo not given),"20 µM [rising, single point]",
COc1ccc(S(=O)(=O)N(C)C[C@H]2Oc3c(NC(=O)Nc4ccc(C(F)(F)F)cc4)cccc3C(=O)N([C@H](C)CO)C[C@@H]2C)cc1,"18.4 µM [falling, partial curve, poor fit]",
COC(=O)CN(c1ccc(OC)cc1)S(=O)(=O)c1ccc(OC)c(OC)c1,"16.4 µM [rising, partial curve]",
COc1cccc2cc(-c3cn4c(n3)sc3cc(F)ccc34)c(=O)oc12,"0.708 µM [falling, full curve]",
COc1ccc(C(=O)NCC(c2cccs2)S(=O)(=O)c2ccc(F)c(C)c2)cc1 (stereo not given),"11.2 µM [rising, single point]",

# One compound at a time, as listed above:
# Cc1ccccc1NC(=O)C1CCC(=O)N1 (stereo not given) as listed: AC50 [1]: 20 µM [rising, single point]
# COc1cccc2cc(-c3cn4c(n3)sc3cc(F)ccc34)c(=O)oc12 as listed: AC50 [1]: 0.708 µM [falling, full curve]
# Cn1c2ccccc2c(=O)c2c(=O)n(Cc3ccco3)c(-c3ccc(C(C)(C)C)cc3)nc21 as listed: AC50 [1]: 8.91 µM [falling, partial curve, poor fit]
# COc1ccc(-c2cc(C(=O)N(C)CC(=O)Nc3ccccc3Br)c3ccccc3n2)cc1OC as listed: AC50 [1]: 6.51 µM [rising, single point]

# The list goes on.

SMILES,AC50 [1],AC50 [2]
Cc1ccc(F)c([C@H]2[C@@H]3C=CCC[C@@]3(C)C(=O)N2Cc2ccccc2)c1,"14.1 µM [falling, single point]",
CCOc1ccc(CCNC(=O)c2cccc(NC3=NC4CS(=O)(=O)CC4S3)c2)cc1OCC (stereo not given),"2.51 µM [rising, partial curve, poor fit]",
C=CCn1c(O)c(N=NC(=S)Nc2ccccc2C)c2cc(S(=O)(=O)N3CCOCC3)ccc21,"29.1 µM [rising, single point]","2.06 µM [falling, partial curve, poor fit]"
O=C(CCN1C(=O)COc2ccccc21)NCCC1=CCCCC1,"25.9 µM [rising, partial curve, poor fit]",
O=C(Nc1ccc(Cl)c(Cl)c1)Oc1ccc(NC(=O)c2ccco2)cc1,"2.06 µM [rising, partial curve, poor fit]",
Cc1c(CCC(=O)NCCC(=O)O)c(=O)oc2cc3occ(-c4ccccc4)c3cc12,"17.8 µM [rising, single point]",
COc1ccc(-c2cc(C(=O)Nc3ccccc3SC)no2)cc1,"1.03 µM [falling, full curve, poor fit]",
O=C(Nc1ccccc1NC(=O)NC1CCCCC1)NC1CCCCC1,"0.731 µM [falling, full curve, poor fit]",
O=C(/C=C/c1ccccc1)Oc1cccc2cccnc12,"5.01 µM [falling, full curve]","5.62 µM [falling, single point]"
Cc1ccc(S(=O)(=O)N(C)c2c(C)ccc(S(=O)(=O)Nc3ccncc3)c2C)cc1,"23.1 µM [rising, partial curve, poor fit]",
Nc1ncnc(Oc2cccc3cccnc23)c1[N+](=O)[O-],"22.4 µM [falling, single point]","35.5 µM [falling, single point]"
COc1cc2cc(Oc3ccc4ccc(=O)oc4c3)c(=O)oc2cc1OC(=O)/C=C/c1ccccc1,"8.91 µM [rising, partial curve, poor fit]",
CCOc1ccccc1OCc1nn2c(COc3ccccc3)nnc2s1,"29.1 µM [rising, single point]",
Nc1ccc2nc(CCCCCCCCc3nc4ccc(N)cc4[nH]3)[nH]c2c1,"0.794 µM [falling, full curve, poor fit]",
Cc1ccc(-c2csc(NC(=O)c3ccc(-c4ccccc4)cc3)n2)o1,"14.6 µM [falling, partial curve, poor fit]",
CC(=O)Nc1nnc(COc2ccc(Cl)cc2)s1,"11.2 µM [falling, partial curve, poor fit]",
Cc1nc2c(Br)cc(Br)cc2cc1O,,"29.1 µM [rising, partial curve, poor fit]"
FC(F)(F)c1ccccc1NC(=S)NN=C1CCCCCC1,"10 µM [falling, partial curve]","25.1 µM [falling, single point]"
CC1CC(C)CN(C(=O)COC(=O)c2cc3ccccc3oc2=O)C1 (stereo not given),"0.13 µM [rising, full curve, poor fit]",
